# Experimental data from the supplement of paper PMC12067093, “Discovery and optimisation of a covalent ligand for TRIM25 and its application to targeted protein ubiquitination” (Chemical Science, 2025).
# By UniProt entry, the sequences of proteins in these tests, tags left out. Where a name states a change or a piece, a line headed by the entry shows the natural chain unless it says otherwise.
# UniProt O43396: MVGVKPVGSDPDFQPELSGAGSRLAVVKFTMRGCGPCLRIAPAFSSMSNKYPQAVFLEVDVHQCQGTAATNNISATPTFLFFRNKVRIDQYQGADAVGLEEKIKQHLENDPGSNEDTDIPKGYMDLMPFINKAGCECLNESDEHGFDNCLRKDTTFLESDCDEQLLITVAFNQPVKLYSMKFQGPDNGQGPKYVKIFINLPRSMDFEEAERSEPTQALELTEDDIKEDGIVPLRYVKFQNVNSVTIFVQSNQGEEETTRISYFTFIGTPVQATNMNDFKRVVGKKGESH
# UniProt P51965: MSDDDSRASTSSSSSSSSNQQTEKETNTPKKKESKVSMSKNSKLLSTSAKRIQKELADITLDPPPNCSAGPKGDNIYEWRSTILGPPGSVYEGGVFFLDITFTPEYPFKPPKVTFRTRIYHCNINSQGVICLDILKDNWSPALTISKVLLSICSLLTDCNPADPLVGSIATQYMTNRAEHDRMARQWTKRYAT
# UniProt P22314: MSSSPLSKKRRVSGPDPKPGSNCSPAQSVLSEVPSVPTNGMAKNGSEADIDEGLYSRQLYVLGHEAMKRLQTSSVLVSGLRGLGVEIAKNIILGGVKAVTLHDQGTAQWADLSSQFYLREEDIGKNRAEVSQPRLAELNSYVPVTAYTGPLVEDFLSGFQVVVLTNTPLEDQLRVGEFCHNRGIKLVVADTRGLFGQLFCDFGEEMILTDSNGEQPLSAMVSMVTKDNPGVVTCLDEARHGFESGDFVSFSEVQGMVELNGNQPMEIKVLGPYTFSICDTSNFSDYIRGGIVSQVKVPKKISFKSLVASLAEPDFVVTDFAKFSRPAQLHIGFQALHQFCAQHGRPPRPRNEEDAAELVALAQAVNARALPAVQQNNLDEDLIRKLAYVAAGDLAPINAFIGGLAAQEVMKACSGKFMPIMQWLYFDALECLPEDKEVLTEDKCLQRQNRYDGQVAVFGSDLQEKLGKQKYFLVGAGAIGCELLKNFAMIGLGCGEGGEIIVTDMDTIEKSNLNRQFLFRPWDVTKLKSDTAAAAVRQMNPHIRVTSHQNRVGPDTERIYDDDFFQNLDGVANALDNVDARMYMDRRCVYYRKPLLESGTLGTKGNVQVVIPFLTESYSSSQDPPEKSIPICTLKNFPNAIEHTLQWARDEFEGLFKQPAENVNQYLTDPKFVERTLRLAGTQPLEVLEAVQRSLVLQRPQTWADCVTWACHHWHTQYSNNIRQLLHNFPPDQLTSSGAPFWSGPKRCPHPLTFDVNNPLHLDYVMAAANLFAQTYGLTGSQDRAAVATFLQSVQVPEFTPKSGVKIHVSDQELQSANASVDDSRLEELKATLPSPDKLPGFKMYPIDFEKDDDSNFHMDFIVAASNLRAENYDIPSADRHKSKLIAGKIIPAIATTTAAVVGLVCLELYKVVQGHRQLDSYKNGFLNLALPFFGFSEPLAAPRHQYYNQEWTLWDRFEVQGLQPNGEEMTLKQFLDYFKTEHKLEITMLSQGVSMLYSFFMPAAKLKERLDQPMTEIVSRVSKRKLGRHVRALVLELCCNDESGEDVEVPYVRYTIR
# UniProt Q3KQV9: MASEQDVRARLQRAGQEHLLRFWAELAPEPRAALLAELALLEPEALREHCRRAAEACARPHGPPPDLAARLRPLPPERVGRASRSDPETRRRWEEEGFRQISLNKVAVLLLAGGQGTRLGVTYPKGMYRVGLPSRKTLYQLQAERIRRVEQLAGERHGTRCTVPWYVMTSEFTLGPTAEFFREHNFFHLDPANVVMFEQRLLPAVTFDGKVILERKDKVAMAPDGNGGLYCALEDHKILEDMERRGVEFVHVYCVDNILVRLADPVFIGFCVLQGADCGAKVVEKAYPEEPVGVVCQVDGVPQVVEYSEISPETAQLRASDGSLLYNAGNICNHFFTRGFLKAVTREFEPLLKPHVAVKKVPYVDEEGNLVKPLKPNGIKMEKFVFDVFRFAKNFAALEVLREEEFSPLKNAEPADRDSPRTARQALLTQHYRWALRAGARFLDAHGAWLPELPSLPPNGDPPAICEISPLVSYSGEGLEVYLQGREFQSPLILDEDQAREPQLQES
# UniProt Q9BZL1: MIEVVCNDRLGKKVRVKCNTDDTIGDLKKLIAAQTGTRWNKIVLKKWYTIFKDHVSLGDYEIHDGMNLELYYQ
# UniProt Q8N806: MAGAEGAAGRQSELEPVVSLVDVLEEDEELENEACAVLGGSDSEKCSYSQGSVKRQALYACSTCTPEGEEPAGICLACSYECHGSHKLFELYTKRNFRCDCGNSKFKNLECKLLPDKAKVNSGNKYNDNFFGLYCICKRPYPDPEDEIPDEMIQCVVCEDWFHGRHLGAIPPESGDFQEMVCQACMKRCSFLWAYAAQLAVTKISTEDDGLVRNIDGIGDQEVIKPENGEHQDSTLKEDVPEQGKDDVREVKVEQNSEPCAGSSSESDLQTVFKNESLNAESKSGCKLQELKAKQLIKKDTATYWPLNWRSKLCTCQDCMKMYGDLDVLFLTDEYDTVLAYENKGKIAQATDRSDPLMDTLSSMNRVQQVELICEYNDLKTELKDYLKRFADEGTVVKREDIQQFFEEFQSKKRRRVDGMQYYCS
# UniProt O15042: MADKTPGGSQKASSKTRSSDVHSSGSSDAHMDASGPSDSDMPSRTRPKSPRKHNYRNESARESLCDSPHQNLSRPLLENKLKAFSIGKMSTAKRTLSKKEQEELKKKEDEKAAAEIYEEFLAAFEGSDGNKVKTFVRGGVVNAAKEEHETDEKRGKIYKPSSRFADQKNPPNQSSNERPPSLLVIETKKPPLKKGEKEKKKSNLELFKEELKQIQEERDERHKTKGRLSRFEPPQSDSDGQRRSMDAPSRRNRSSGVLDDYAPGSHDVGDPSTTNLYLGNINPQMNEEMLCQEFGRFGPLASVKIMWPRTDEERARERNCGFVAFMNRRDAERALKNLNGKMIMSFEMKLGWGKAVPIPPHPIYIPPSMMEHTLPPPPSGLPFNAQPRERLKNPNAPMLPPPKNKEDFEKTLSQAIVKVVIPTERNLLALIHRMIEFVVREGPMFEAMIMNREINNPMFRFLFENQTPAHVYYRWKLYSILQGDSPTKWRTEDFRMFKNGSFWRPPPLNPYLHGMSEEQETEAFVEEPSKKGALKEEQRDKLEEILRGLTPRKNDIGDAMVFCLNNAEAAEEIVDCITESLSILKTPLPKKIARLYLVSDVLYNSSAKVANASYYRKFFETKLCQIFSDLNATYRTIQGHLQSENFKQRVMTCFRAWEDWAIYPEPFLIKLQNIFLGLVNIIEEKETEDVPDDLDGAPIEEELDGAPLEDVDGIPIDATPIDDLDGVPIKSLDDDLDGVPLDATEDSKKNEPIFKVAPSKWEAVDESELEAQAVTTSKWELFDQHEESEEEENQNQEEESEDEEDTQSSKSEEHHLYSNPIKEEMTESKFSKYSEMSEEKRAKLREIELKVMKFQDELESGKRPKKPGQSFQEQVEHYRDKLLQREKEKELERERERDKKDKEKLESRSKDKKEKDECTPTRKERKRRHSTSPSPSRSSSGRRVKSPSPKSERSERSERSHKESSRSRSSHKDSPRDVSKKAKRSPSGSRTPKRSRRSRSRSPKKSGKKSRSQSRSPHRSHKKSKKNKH
# UniProt O95071: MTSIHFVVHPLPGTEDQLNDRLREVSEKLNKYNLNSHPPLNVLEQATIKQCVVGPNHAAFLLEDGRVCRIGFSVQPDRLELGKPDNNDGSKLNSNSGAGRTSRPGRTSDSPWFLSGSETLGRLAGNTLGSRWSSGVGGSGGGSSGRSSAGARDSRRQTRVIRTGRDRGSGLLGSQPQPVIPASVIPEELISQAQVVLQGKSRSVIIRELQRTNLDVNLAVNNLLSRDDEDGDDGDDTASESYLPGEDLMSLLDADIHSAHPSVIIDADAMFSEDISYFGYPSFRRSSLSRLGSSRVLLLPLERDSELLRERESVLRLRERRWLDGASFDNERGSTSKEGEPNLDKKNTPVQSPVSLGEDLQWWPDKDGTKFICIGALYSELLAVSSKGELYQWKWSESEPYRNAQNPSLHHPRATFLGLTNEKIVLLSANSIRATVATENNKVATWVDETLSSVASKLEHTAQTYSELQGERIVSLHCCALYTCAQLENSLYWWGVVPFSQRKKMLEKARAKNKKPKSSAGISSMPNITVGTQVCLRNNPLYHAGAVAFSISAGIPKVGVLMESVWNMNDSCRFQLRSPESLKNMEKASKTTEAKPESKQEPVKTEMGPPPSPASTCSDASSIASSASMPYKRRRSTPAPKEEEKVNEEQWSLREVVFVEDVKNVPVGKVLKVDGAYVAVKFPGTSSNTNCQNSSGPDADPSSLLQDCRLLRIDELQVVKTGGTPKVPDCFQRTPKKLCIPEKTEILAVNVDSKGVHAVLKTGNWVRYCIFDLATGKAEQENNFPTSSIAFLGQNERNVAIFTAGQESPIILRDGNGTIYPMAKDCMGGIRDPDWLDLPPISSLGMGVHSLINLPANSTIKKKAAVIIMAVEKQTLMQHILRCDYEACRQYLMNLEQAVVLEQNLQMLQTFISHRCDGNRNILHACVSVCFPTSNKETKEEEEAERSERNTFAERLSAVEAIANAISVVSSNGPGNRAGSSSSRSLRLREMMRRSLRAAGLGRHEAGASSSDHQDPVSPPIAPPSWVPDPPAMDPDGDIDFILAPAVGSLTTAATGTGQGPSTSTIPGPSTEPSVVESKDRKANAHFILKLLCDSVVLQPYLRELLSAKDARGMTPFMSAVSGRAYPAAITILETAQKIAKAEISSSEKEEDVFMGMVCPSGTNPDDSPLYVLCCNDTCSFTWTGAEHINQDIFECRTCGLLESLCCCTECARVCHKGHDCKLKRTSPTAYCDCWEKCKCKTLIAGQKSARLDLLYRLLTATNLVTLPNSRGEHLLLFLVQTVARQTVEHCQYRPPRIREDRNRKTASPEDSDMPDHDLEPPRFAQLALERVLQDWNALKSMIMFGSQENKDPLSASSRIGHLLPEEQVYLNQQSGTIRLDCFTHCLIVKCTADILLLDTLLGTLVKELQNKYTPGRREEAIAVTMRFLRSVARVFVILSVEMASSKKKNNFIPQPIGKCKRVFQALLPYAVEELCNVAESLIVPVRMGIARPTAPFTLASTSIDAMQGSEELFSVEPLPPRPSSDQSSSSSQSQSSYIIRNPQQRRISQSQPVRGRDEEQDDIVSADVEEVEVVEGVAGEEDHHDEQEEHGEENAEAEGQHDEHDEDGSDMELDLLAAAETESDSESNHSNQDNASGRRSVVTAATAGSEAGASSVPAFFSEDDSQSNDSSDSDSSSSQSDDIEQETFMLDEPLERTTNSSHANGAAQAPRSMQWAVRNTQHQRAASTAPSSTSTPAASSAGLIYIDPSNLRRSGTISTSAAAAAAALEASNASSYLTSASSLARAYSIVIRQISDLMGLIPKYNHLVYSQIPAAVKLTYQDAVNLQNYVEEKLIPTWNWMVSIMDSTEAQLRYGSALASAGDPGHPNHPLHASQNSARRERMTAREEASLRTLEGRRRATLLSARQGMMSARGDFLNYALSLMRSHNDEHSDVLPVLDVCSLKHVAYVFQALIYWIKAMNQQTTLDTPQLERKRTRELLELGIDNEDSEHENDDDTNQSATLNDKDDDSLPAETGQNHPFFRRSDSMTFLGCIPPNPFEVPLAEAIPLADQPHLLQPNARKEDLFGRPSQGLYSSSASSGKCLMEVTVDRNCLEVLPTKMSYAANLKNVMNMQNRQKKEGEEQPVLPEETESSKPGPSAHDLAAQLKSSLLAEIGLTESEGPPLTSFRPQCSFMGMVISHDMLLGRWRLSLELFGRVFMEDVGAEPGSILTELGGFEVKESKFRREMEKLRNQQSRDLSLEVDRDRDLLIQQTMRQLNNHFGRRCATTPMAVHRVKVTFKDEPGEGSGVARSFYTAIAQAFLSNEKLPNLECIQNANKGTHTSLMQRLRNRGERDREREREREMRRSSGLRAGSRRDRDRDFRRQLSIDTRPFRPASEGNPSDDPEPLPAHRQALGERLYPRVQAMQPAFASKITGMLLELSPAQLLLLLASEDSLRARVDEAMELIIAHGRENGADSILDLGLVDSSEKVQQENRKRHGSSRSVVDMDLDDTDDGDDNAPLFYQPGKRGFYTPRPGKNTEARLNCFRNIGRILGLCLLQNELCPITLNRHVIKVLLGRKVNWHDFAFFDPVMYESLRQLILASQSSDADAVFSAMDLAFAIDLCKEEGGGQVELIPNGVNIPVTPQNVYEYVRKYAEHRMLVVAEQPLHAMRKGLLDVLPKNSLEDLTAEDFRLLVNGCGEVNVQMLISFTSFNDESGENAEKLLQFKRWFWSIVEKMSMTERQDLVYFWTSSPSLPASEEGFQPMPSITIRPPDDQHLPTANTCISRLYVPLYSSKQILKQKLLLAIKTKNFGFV
# UniProt P61081: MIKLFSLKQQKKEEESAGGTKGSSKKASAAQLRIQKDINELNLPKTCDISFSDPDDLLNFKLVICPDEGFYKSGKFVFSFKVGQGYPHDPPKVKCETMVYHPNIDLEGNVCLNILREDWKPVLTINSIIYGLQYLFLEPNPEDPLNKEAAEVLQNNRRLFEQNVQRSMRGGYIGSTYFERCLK
# The other results are listed elsewhere or left out.
# Compound: Cc1cc(ccc1-c1ccccc1)C(=O)N1CCCN(CC1)C(=O)CCl [compound 10]
# Assay: probe-labelled cysteine peptide fold change vs DMSO (competition) (log2 fold change); higher = less target engagement (more negative = stronger competition)
# Conditions: THP-1, incubation time: 4 h
# 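Also: competitive profiling in live THP-1 cells: cysteine peptides tagged with an iodoacetamide desthiobiotin (IA-DTB) probe, intensity after compound treatment relative to DMSO-treated cells.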
Target,probe-labelled cysteine peptide fold change (10 µM),probe-labelled cysteine peptide fold change (50 µM)
UBR3_Q6ZT12_288_DLTSGLGENACVK (UniProt Q6ZT12),-0.298,-0.751
UBE2A_P49459_88_MFHPNVYADGSICLDILQNR (UniProt P49459),-0.288,-0.114
TXNL1_O43396_135+137_AGCECLNESDEHGFDNCLR (UniProt O43396),-0.344,-0.462
UBE2E1_P51965_122+131_IYHCNINSQGVICLDILK (UniProt P51965),-0.13,0.433
UBA1_P22314_179_VGEFCHNR (UniProt P22314),0.0693,0.0567
UBE3A_Q05086_760_YLFRPEEIELLICGSR (UniProt Q05086),0.173,-0.147
UAP1L1_Q3KQV9_50_AALLAELALLEPEALREHCR (UniProt Q3KQV9),-0.0419,-0.0103
UBR1_Q8IWV7_1369_ITCPQVLIQK (UniProt Q8IWV7),-0.179,0.281
UBR1_Q8IWV7_1197_IHVDLFDLESGEYLCPLCK (UniProt Q8IWV7),-0.181,-0.0944
UBA1_P22314_1039+1040_ALVLELCCNDESGEDVEVPYVR (UniProt P22314),0.172,0.0769
UBR2_Q8IWV8_336_ILCQVGLQEGPDGENSSLVDR (UniProt Q8IWV8),0.0457,-0.118
UBR4_Q5T4S7_1900_VAMCVLSSPHGR (UniProt Q5T4S7),-0.0521,-0.0658
UBA6_A0AVT1_311_CLIVDFSNPEAPLEIHTAMLALDQFQEK,0.275,0.292
UBA1_P22314_481_YFLVGAGAIGCELLK (UniProt P22314),0.0196,0.032
UBR4_Q5T4S7_1662_LCTFTITQK (UniProt Q5T4S7),-0.111,-0.214
UBE4A_Q14139_79_SQQEICEQLNINHMIQR (UniProt Q14139),-0.119,-0.0744
UBASH3B_Q8TF42_130+135_AHNIFPHITLCQFFMCEDSKVDALGEALQTTVSR (UniProt Q8TF42),-0.171,-0.513
UBA1_P22314_494_NFAMIGLGCGEGGEIIVTDMDTIEK (UniProt P22314),0.0314,-0.0685
UBE4B_O95155_448_MCSQPAVSQLLSNIR (UniProt O95155),-0.215,-0.184
TXNL4B_Q9NX01_38_FGRDEDPVCLQLDDILSK (UniProt Q9NX01),-0.132,-0.00756
UBASH3B_Q8TF42_135_AHNIFPHITLCQFFMCEDSKVDALGEALQTTVSR (UniProt Q8TF42),0.216,-0.422
UBAP1_Q9NZ09_161_ADFNLADFECEEDPFDNLELK (UniProt Q9NZ09),-0.206,-0.0825

# Quoted from the listing.
# Value for UBR2_Q8IWV8_336_ILCQVGLQEGPDGENSSLVDR (UniProt Q8IWV8) under probe-labelled cysteine peptide fold change (10 µM): 0.0457
# Value for UBR1_Q8IWV7_1369_ITCPQVLIQK (UniProt Q8IWV7) under probe-labelled cysteine peptide fold change (10 µM): -0.179
# Value for UBA1_P22314_1039+1040_ALVLELCCNDESGEDVEVPYVR (UniProt P22314) under probe-labelled cysteine peptide fold change (10 µM): 0.172

# Remaining list, next part

Target,probe-labelled cysteine peptide fold change (10 µM),probe-labelled cysteine peptide fold change (50 µM)
UBE2Z_Q9H832_286_SFLEYYDFYEVACK (UniProt Q9H832),-0.214,-0.0615
UBE2G2_P60604_75_FTCEMFHPNIYPDGR (UniProt P60604),-0.0589,-0.214
UBAP2_Q5T6F2_71+78_NQDECIVALHDCNGDVNK (UniProt Q5T6F2),0.23,0.163
UBA3_Q8TBC4_249_LPEHCIEYVR (UniProt Q8TBC4),-0.0154,-0.159
UBL5_Q9BZL1_18_CNTDDTIGDLK (UniProt Q9BZL1),0.202,-0.104
TXNL1_O43396_149_AGCECLNESDEHGFDNCLRK (UniProt O43396),-0.189,-0.0731
UBE2R2_Q712K3_191_VPTTLAEYCIK (UniProt Q712K3),-0.145,-0.321
UBA6_A0AVT1_96_CQAWDLGTNFFLSEDDVVNK,-0.26,0.29
UBA6_A0AVT1_17_MEGSEPVAAHQGEEASCSSWGTGSTNK,-0.503,-0.362
UBA6_A0AVT1_174_KINDFCR,0.103,0.0143
TXNRD2_Q9NNW7_168_ASFVDEHTVCGVAK (UniProt Q9NNW7),-0.0313,0.118
TYMP_P19971_280+293_CVGHALEVEEALLCMDGAGPPDLR (UniProt P19971),0.167,0.0257
TYW1B_Q6NUM6_581_ELVDLIPEYEIACEHEHSNCLLIAHR (UniProt Q6NUM6),-0.18,0.153
UBE2O_Q9C0C9_353_CLYVFPAK (UniProt Q9C0C9),-0.197,-0.291
UBR4_Q5T4S7_1970_EDYLAVCGLK (UniProt Q5T4S7),0.0724,0.0097
UBR7_Q8N806_101_CDCGNSK (UniProt Q8N806),0.00343,-0.607
UBP1_Q9NZI7_409_EDLVQICGAADGIR (UniProt Q9NZI7),0.109,-0.0555
UBALD2_Q8IYN6_23_HQVMINQFVLAAGCAADQAK (UniProt Q8IYN6),0.55,0.229
UBE2T_Q9NPD8_86_ICLDVLK (UniProt Q9NPD8),-0.0694,0.175
UBE2K_P61086_170_KIENLCAMGFDR (UniProt P61086),0.0906,-0.102
UBR4_Q5T4S7_2619_QLEGDCCSFITQLVNHFWK (UniProt Q5T4S7),-0.0425,-0.45
UAP1L1_Q3KQV9_57_AAEACAR (UniProt Q3KQV9),0.00283,0.0362

Target,probe-labelled cysteine peptide fold change (10 µM),probe-labelled cysteine peptide fold change (50 µM)
U2SURP_O15042_918_EKDECTPTRK (UniProt O15042),-0.0489,0.231
UAP1L1_Q3KQV9_278_LADPVFIGFCVLQGADCGAK (UniProt Q3KQV9),0.128,0.735
UBR5_O95071_2546_ILGLCLLQNELCPITLNR (UniProt O95071),-0.0401,0.271
UBA6_A0AVT1_468+473_LQNLNIFLVGCGAIGCEMLK,-0.0565,0.00786
UBE4B_O95155_534_ECSLDSDYFK (UniProt O95155),-0.0831,0.0927
UBQLN4_Q9NRR5_29_DKEEIVICDR (UniProt Q9NRR5),0.0616,-0.432
UBE2E1_P51965_122_IYHCNINSQGVICLDILK (UniProt P51965),-0.44,0.542
U2AF2_P26368_464_YCDPDSYHR (UniProt P26368),0.298,0.1
UBL7_Q96S82_66_LQESVPDPELIDLIYCGR (UniProt Q96S82),-0.109,-0.328
TXNRD1_Q16881_214_WGLGGTCVNVGCIPKK (UniProt Q16881),-0.00826,-0.749
UBR4_Q5T4S7_1900_RVAMCVLSSPHGR (UniProt Q5T4S7),-0.0283,0.186
TYMP_P19971_138_VSLVLAPALAACGCK (UniProt P19971),0.124,-0.31
UBR2_Q8IWV8_99_LEQANKPSHLCGR (UniProt Q8IWV8),-0.0959,-0.175
UBA3_Q8TBC4_139_AEVAAEFLNDRVPNCNVVPHFNK (UniProt Q8TBC4),0.0618,-0.0531
UBE2M_P61081_111_CETMVYHPNIDLEGNVCLNILR (UniProt P61081),0.159,-0.000674
UBR4_Q5T4S7_3765_VYHQLMGHRPQLENLLCK (UniProt Q5T4S7),-0.0725,-0.0799
UBE4A_Q14139_710_VFCNFQYAPQLAEALIK (UniProt Q14139),-0.122,0.137
TXNL1_O43396_135_AGCECLNESDEHGFDNCLR (UniProt O43396),-0.407,-0.487
UAP1L1_Q3KQV9_57_AAEACARPHGPPPDLAAR (UniProt Q3KQV9),-0.0822,-0.0801
UBL4A_P11441_13_ECSLQVPEDELVSTLK (UniProt P11441),0.0566,0.12
UBE3C_Q15386_1018_FVTSCSRPPLLGFK (UniProt Q15386),-0.242,0.0815
UBE3A_Q05086_108_GAPNNSCSEIK (UniProt Q05086),-0.138,-0.789

Target,probe-labelled cysteine peptide fold change (10 µM),probe-labelled cysteine peptide fold change (50 µM)
UBAP2_Q5T6F2_104_AINILLEGNSDTTSWETVGCK (UniProt Q5T6F2),-0.000255,-0.128
TXNRD2_Q9NNW7_483_CGASYAQVMR (UniProt Q9NNW7),0.134,0.135
UBR5_O95071_1093_LLCDSVVLQPYLR (UniProt O95071),-0.00562,0.137
TXNL4A_P83876_38_FGHDWDPTCMK (UniProt P83876),0.0678,0.182
UBR4_Q5T4S7_2618_QLEGDCCSFITQLVNHFWK (UniProt Q5T4S7),0.117,-0.179
UBE2D3_P61077_111_VLLSICSLLCDPNPDDPLVPEIAR (UniProt P61077),-0.661,0.456
U2SURP_O15042_65_ESLCDSPHQNLSR (UniProt O15042),0.224,0.0744
UBE3A_Q05086_480_FSFMTCPFILNAVTK (UniProt Q05086),-0.0742,0.0689
UBR1_Q8IWV7_574_CSTSFISSSK (UniProt Q8IWV7),0.00992,0.14
UBE3A_Q05086_843_NGPDTERLPTSHTCFNVLLLPEYSSK (UniProt Q05086),-0.114,-0.368
UBR7_Q8N806_155+158_RPYPDPEDEIPDEMIQCVVCEDWFHGR (UniProt Q8N806),-0.195,-1.14
TXNRD2_Q9NNW7_523_SGLDPTVTGCUG (UniProt Q9NNW7),-1.15,-2.15
UBASH3B_Q8TF42_240_LGCDWVATIFSR (UniProt Q8TF42),0.204,0.257
TXNRD2_Q9NNW7_54_DYDLLVVGGGSGGLACAK (UniProt Q9NNW7),-0.0642,-0.125
UBE2O_Q9C0C9_230_CSMNTEDGAK (UniProt Q9C0C9),0.04,0.0673
UBE2V1_Q13404_71_IECGPK (UniProt Q13404),-0.048,-0.193
TXN_P10599_73_CMPTFQFFK (UniProt P10599),-0.261,-0.457
UBL5_Q9BZL1_6_MIEVVCNDR (UniProt Q9BZL1),0.108,-0.685
UBR1_Q8IWV7_1101_EVLTCILCQEEQEVK (UniProt Q8IWV7),-0.162,0.733
